## Melanoma cell counts after drug treatment

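Human melanoma cells were exposed to two drugs together for 72 h in 1,536-well plates and read by automated microscopy after fixing and staining. The read-out is cell count (nuclei) in % of the DMSO control; lower values mean stronger growth inhibition or killing. Concentrations were fixed for each drug; these are the lower of two levels, a fifth of the higher. No replicate spread is given; individual values may be noisy.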 An unselected part of the screen is shown.

Drug key:
fingolimod (2000 nM): CCCCCCCCc1ccc(CCC(N)(CO)CO)cc1
bortezomib (1 nM): CC(C)C[C@H](NC(=O)[C@H](Cc1ccccc1)NC(=O)c1cnccn1)B(O)O
erlotinib (800 nM): C#Cc1cccc(Nc2ncnc3cc(OCCOC)c(OCCOC)cc23)c1
perifosine (400 nM): CCCCCCCCCCCCCCCCCCOP(=O)([O-])OC1CC[N+](C)(C)CC1

Cell line,bortezomib + fingolimod,erlotinib + bortezomib,bortezomib + perifosine,fingolimod + perifosine,perifosine + erlotinib
MEL-HO,81.2,93.7,103,110,83.9
A2058,91.9,86.1,78.5,93.9,83.0
IPC-298,89.0,66.1,85.7,98.9,89.5
C32,93.0,86.5,78.3,91.0,103
A101D,51.1,21.1,61.2,105,95.9
COLO 800,113,97.5,106,88.7,102
COLO 792,93.3,81.4,105,91.3,87.5
LB2518-MEL,58.3,41.0,81.2,103,87.0
COLO 829,96.6,49.1,77.4,86.9,108
A375,61.6,110,21.9,63.5,69.8
G-361,22.8,3.7,58.4,105,105
LOX IMVI,70.8,39.2,111,89.7,76.9
IST-MEL1,93.0,69.0,97.5,94.0,91.7

2 of the entries, repeated:

Cell line	bortezomib + fingolimod	erlotinib + bortezomib	bortezomib + perifosine	fingolimod + perifosine	perifosine + erlotinib
G-361	22.8	3.7	58.4	105	105
LOX IMVI	70.8	39.2	111	89.7	76.9

Data from the primary screen of doi:10.1371/journal.pone.0140310, rounded.